Results reported in PMC6746120.
Results are given in words; binding and its absence hold for the method and conditions named. In cells and extracts the contact can be indirect. Some binding calls cover weakened binding; strength is not graded here.

T1: minichromosome maintenance complex component 6 (UniProt Q14566)
T1 sequence: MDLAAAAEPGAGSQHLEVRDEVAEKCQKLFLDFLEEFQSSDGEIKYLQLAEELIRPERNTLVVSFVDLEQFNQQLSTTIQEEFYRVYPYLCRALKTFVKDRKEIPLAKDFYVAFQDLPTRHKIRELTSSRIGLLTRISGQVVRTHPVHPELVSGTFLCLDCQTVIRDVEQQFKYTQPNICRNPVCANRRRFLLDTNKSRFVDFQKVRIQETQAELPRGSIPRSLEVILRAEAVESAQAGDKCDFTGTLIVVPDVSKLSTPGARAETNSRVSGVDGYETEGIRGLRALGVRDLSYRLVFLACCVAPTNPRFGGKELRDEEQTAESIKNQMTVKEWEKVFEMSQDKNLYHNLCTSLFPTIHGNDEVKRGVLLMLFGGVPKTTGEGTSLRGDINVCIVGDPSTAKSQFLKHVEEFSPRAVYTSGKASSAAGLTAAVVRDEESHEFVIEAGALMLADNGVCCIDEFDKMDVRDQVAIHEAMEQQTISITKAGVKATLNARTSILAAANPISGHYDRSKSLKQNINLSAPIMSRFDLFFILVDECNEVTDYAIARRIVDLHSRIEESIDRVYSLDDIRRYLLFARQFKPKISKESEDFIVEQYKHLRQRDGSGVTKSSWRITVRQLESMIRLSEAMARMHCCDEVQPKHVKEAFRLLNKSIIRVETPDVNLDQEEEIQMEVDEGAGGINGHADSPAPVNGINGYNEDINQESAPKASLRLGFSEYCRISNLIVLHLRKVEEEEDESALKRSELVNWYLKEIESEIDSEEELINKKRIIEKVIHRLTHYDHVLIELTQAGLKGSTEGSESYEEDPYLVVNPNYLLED

T2: Cyclin-dependent kinase 5 regulatory subunit-associated protein 3 (UniProt Q96JB5)
T2 sequence: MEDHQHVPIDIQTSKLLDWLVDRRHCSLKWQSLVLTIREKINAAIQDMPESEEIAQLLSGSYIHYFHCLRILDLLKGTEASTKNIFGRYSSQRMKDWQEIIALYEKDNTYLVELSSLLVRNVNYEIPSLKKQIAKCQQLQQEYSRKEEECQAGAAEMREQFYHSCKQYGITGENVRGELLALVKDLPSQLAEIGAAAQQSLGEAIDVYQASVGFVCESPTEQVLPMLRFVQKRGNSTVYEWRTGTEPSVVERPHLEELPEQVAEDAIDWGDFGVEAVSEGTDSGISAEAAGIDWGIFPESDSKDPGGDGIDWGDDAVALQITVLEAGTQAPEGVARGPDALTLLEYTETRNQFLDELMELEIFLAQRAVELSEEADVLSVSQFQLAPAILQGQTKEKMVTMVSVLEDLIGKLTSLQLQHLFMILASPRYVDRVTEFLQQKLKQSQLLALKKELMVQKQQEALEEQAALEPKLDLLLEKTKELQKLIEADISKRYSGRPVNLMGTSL

B1: Cyclin-dependent kinase 5 regulatory subunit-associated protein 3 (protein, UniProt Q96JB5 1-506)
chain: T2 sequence
B2: minichromosome maintenance complex component 6 (protein, UniProt Q14566 1-821)
chain: T1 sequence

Columns and labels:
[1] = target: T1, minichromosome maintenance complex component 6; assay: co-IP; lysates (50 mmol/L Tris pH 7.4, 150 mmol/L NaCl, 1% NP-40) of HGC-27 and 293T cells overexpressing CDK5RAP3 and MCM6; antibody against MCM6 or CDK5RAP3 overnight at 4 °C, Protein A-Sepharose, Western blot
[2] = target: T2, Cyclin-dependent kinase 5 regulatory subunit-associated protein 3; assay: as above

Binder	binding [1]	binding [2]
B1	binds	–
B2	–	binds
